1 compound from patent US20040096455A1, “Transdermal vaccine delivery device having coated microprotrusions” (priority 2002, published 2004) can be followed below.

The structures appear in SMILES notation.

In the data set the target is T1, ovalbumin (Gallus gallus, UniProt P01012).
T1 sequence (P01012 1-386): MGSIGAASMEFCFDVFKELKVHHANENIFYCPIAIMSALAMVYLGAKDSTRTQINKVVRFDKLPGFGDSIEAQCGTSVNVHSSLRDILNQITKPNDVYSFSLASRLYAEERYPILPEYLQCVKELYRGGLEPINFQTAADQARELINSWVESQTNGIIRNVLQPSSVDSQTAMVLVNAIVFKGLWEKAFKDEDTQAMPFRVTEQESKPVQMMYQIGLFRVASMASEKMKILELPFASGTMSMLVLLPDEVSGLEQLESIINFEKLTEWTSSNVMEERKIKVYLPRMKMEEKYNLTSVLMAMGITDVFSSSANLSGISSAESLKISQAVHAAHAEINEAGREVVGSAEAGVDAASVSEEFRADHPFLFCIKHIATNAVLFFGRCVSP
As to the kind of experiment: Solubilization of 0.5 wt % ovalbumin solution by surfactants. In kind it is physicochemical. The text has this: Other surfactants and concentrations were test against a solution 0.5 wt % ovalbumin.

Take `CCCCCCCCCCCCCCCC[n+]1ccccc1` [Cetylpyridinium chloride]: the “complete solubilization of ovalbumin solution” value (shortened to “complete solubilization”) (Surfactant Concentration 0.0085 M) is recorded as “−”; the “complete solubilization” value (Surfactant Concentration 0.017 M) is on record as “−”; the “complete solubilization” value (Surfactant Concentration 0.035 M) was “−”; the “complete solubilization” value (Surfactant Concentration 0.052 M) was “−”; the “complete solubilization” value (Surfactant Concentration 0.069 M) is recorded as “+”.
